Drawing on PMC3991615, “The N-Terminal Domain of the Repressor of Staphylococcus aureus Phage Φ11 Possesses an Unusual Dimerization Ability and DNA Binding Affinity”, this text covers Kd for one sequence.

The exact form of at least one protein or probe is not confirmed. Tags and fusion partners may be left off the protein sequences shown.

Data set [1] addresses T1, rCI (phage phi11 CI lysogenic repressor) (Staphylococcus aureus phage phi11) (UniProt Q8SDX2).
T1 sequence (looked up, limits assumed): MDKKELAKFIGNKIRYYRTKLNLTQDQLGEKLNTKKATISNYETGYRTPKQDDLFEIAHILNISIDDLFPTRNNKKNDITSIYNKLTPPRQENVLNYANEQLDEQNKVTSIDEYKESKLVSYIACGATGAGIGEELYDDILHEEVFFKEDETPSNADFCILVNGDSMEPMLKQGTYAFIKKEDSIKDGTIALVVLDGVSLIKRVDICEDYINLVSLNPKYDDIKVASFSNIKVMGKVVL
Nature of the data set: EMSA. Conditions: 42°C, Kd stated as very similar to that of rNTD; EMSA with ~0.1 nM 32P-DNA, 20 min on ice (0°C) unless 42°C; RNAP assay and protein storage in buffer C (10 mM Tris-HCl pH 8.0, 200 mM NaCl, 1 mM EDTA, 5% glycerol); recombinant protein; protein details: C-terminal His tag; label: 32P.

Data set [2] has as its target T2, rNTD (N-terminal domain of phage phi11 CI repressor) (Staphylococcus aureus phage phi11) (UniProt Q8SDX2).
T2 sequence (looked up, limits assumed): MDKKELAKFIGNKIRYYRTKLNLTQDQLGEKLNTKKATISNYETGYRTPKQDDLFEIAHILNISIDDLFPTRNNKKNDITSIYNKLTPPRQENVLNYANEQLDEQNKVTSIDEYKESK
The data set is described as follows: EMSA. Conditions: 42°C; EMSA with ~0.1 nM 32P-DNA, 20 min on ice (0°C) unless 42°C; RNAP assay and protein storage in buffer C (10 mM Tris-HCl pH 8.0, 200 mM NaCl, 1 mM EDTA, 5% glycerol); recombinant protein; protein details: C-terminal His6 (8 additional residues); label: 32P. On the technique in general: Mobility shift assays separate free from complexed probe on a gel.

Usually Kd stands for the concentration at which binding is half-saturated. As for “GACTCAAGTACACGTATCGTGTATAGTAGGTTTA / AAACCTACTATACACGATACGTGTACTTGAGTCA [O1]”, the dissociation constant Kd in data set [1] and in data set [2] was 300 nM each time.
